Reference: publication PMC12359043, “Chemical crosslinking extends and complements UV crosslinking in analysis of RNA/DNA nucleic acid–protein interaction sites by mass spectrometry”
For at least one entry, the source does not settle the construct or the ends of the probe. For some assays here: At least one verdict rests on a figure or table, not on a statement of the authors. For some assays here: Where a protein sequence is shown, tags need not be part of it.

Legend:
Hsh49 + Cus1 = assay: UV crosslinking MS; conditions: 254 nm, 10 min, protein:RNA 4:1; NELF-TAR complex: 20 mM HEPES/NaOH pH 7.4, 150 mM NaCl, 10% glycerol, 1 mM DTT, mixed 30 min at 4 C; anisotropy conditions only by reference [29]; recombinant protein
spDnmt2 = target: T1, spDnmt2 (UniProt P40999); assay: UV crosslinking MS; conditions: 254 nm, 10 min; unmodified (in vitro transcript); NELF-TAR complex: 20 mM HEPES/NaOH pH 7.4, 150 mM NaCl, 10% glycerol, 1 mM DTT, mixed 30 min at 4 C; anisotropy conditions only by reference [29]; recombinant protein; protein details: GST removed by PreScission (pGEX 6P-3)
T1 sequence (looked up, limits assumed): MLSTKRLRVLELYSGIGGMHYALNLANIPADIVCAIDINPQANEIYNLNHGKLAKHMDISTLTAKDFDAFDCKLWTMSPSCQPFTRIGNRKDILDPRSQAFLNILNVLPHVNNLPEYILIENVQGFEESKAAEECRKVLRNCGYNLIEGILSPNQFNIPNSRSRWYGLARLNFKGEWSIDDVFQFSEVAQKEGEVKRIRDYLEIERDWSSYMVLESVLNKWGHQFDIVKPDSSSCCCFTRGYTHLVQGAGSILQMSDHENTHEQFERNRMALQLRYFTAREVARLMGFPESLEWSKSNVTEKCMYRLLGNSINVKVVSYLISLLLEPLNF

Row | Sequence | binding result (Hsh49 + Cus1) | binding result (spDnmt2)
1 | GGACGAAUCUCUUUGCCUUUUGGCUUAGAUCAAGUGUAGUAUCUGUUCUUCUAG [U2 snRNA nt 1-47 (U2-47Nt)] | binds | –
2 | GGGUCUCCUUUAGUAUAGGGGUAGUACACAAGCCUGUCACGCUUGCAGCCCGGGUUCGAAUCCCGGAGGGAGAG [sptRNA-Asp] | – | binds
